{"source": "patent US20220330529A1", "about": "“METHODS FOR GENERATING ANIMAL MODELS FOR NONALCOHOLIC FATTY LIVER DISEASE” (INNOLAND BIOSCIENCES (ZHEJIANG) CO., LTD., priority 2019, published 2022)", "key": {"MS-NASH mice": {"test_system": "MS-NASH mice", "assay": "Therapeutic effects of OCA in WDF fed MS-NASH mice treated low dose CCl4", "assay_type": "in vivo, mouse", "description": "(§1) Male MS-NASH (formally FATZO) mice were developed by Crown Bioscience as the new generation of mouse model with obese, metabolic disorder, diabetes and NAFLD/NASH that is more translatable to human diseases. The animals for this study were bred housed individually in IVC cages (Taicang, China) or open ventilated cages (Indianapolis, Ind.), and fed control diet (CD, Purina 5008 chow, LabDiet, St. Louis, Mo.) with distilled water ad libitum for the first 8 weeks after birth, then, stratified into different experimental groups based on body weight, serum ALT and AST. Room temperature was monitored and maintained at 22-26° C. with a 12-hour light cycle (06:00-18:00). C57B1/6J mice (The Jackson Laboratory, Ellsworth, Maine) were used as control strain and housed under the same conditions. All mice were maintained and treated in accordance with the guidelines of Association for Assessment and Accreditation of Laboratory Animal Care (AAALAC), and experimental protocols approved by the Institutional Animal Care and Use Committee (IACUC).\n(§2) In all the experiments, body weights were recorded every 4 weeks. At the end of the experiments, all mice were euthanized by CO2 inhalation and confirmed with cervical dislocation approximately 24 hours after the last CCl4 administration.\n(§3) Blood samples: Blood samples during the course of the experiment were collected from the tail or at the end of the experiment from cardiac puncture, from which, serum prepared for measuring AST and ALT by a clinical analyzer (Beckman-Coulter AU480; Brea, Calif.). In the low dose CCl4 repeated treatment group, in-life blood samples were taken—24 hours, and terminal blood samples taken, —24 hours after CCl4 doing, respectively. A separate experiment was performed to observe the acute time course at 24, 48 and 72 hours in response to a single dose of CCl4 at 0.2 mL/kg in MS-NASH mice on CD. […]\n(§4) All values are reported as Mean±SEM, unless noted otherwise. Model characterization were compared in MS-NASH mice on CD or WDF with or without CCl4; and effects of OCA were compared to vehicle with One-Way ANOVA for multiple groups or Holm-Sidak t-test for 2 groups. Survival curves of total MS-NASH mice and C57B1/6 mice were compared using Log-rank test for trend. Parametric correlation tests were conducted between pathologist scores and ImageDx quantitative analysis using Pearson correlation coefficient r. Statistical differences were denoted as p<0.05 or p<0.005. Prism software (GraphPad, version 8.3) was used for the statistical analysis and graphing.\n(§5) After 8 weeks on CD, MS-NASH mice were fed WDF for 16 weeks to induce liver phenotypes. After 8 weeks on WDF, the animals were injected IP with low dose CCl4 (0.08 mL/kg) twice weekly and divided into vehicle (n=11) and OCA (n=10) groups for an additional 8 weeks during which, vehicle (1% methylcellulose, Sigma Aldrich) or OCA (Toronto Research Chemicals, New York, ON, Canada, 30 mg/kg) was administrated orally once daily. C57B1/6 mice were compared with the same protocol in vehicle (n=9) or OCA (n=9) groups."}, "C57B1/6 mice": {"test_system": "C57B1/6 mice", "assay": "Therapeutic effects of OCA in WDF fed C57B1/6 mice treated low dose CCl4", "assay_type": "in vivo, mouse", "description": "as §1, §2, §3, §4, §5"}, "NASH": {"test_system": "NASH", "conditions": "clinical trial; cited from earlier work"}, "pre-clinical NASH models": {"test_system": "pre-clinical NASH models", "conditions": "pre-clinical rodent studies; cited from earlier work"}, "[1]": {"conditions": "OCA 30 mg/kg QD vs vehicle, MS-NASH mice, Reveal ImageDx"}, "[2]": {"conditions": "OCA 30 mg/kg QD vs vehicle, MS-NASH mice, pathologist"}, "[3]": {"conditions": "OCA 30 mg/kg orally once daily 8 weeks vs vehicle, MS-NASH mice"}, "[4]": {"conditions": "OCA 30 mg/kg QD vs vehicle, Reveal ImageDx"}, "[5]": {"conditions": "OCA 30 mg/kg orally once daily 8 weeks vs vehicle"}}, "note": "At least one structure is not confirmed: it was looked up by name or label, or the drawing left a doubt.", "data": [{"smiles": "CC[C@H]1[C@@H](O)[C@@H]2[C@H](CC[C@]3(C)[C@@H]([C@H](C)CCC(=O)O)CC[C@@H]23)[C@@]2(C)CC[C@@H](O)C[C@@H]12", "note": "[OCA, obeticholic acid]", "values": [{"measurement": "NAS score, such as steatosis and fibrosis", "setting": "MS-NASH mice; MS-NASH mice on high-fat high fructose diet, OCA treatment before CCl4 administration", "result": "significantly improved"}, {"measurement": "Steatosis score by pathologist", "setting": "MS-NASH mice; OCA 30 mg/kg QD vs vehicle, MS-NASH mice", "result": "significantly reduced"}, {"measurement": "degenerated ballooning hepatocyte counts", "setting": "MS-NASH mice; [1]", "result": "significantly reduced"}, {"measurement": "percentage fibrosis area", "setting": "MS-NASH mice; [1]", "result": "significantly reduced"}, {"measurement": "steatosis percent area by computer quantification", "setting": "MS-NASH mice; [1]", "result": "significantly reduced"}, {"measurement": "NAS score", "setting": "MS-NASH mice; [2]", "result": "significantly reduced"}, {"measurement": "fibrosis score", "setting": "MS-NASH mice; [2]", "result": "significantly reduced"}, {"measurement": "liver contents of cholesterol", "setting": "MS-NASH mice; [3]", "result": "significantly reduced"}, {"measurement": "liver contents of triglycerides", "setting": "MS-NASH mice; [3]", "result": "significantly reduced"}, {"measurement": "liver weight", "setting": "MS-NASH mice; [3]", "result": "reduced"}, {"measurement": "serum AST", "setting": "MS-NASH mice; [3]", "result": "lowered AST only in C57B1/6"}, {"measurement": "histopathology images (H&E, PSR)", "setting": "MS-NASH mice; OCA treated vs vehicle treated, MS-NASH mice", "result": "less lipid vacuoles and alleviated bridging fibrosis"}, {"measurement": "Steatosis score by pathologist", "setting": "C57B1/6 mice; OCA 30 mg/kg QD vs vehicle", "result": "significantly reduced"}, {"measurement": "percentage fibrosis area", "setting": "C57B1/6 mice; [4]", "result": "significantly reduced"}, {"measurement": "quantitative infiltrated inflammatory cell counts", "setting": "C57B1/6 mice; [4]", "result": "significantly reduced"}, {"measurement": "steatosis percent area by computer quantification", "setting": "C57B1/6 mice; [4]", "result": "significantly reduced"}, {"measurement": "liver contents of cholesterol", "setting": "C57B1/6 mice; [5]", "result": "significantly reduced"}, {"measurement": "liver contents of triglycerides", "setting": "C57B1/6 mice; [5]", "result": "significantly reduced"}, {"measurement": "liver weight", "setting": "C57B1/6 mice; [5]", "result": "reduced liver weight only in MS-NASH mice"}, {"measurement": "serum AST", "setting": "C57B1/6 mice; [5]", "result": "lowered"}, {"measurement": "histopathology images (H&E, PSR)", "setting": "C57B1/6 mice; OCA treated vs vehicle treated", "result": "less lipid vacuoles and alleviated bridging fibrosis"}, {"measurement": "plasma liver ALT and AST levels", "setting": "NASH", "result": "significant alleviation"}, {"measurement": "steatosis, hepatic ballooning, lobular inflammation and fibrosis", "setting": "NASH", "result": "mild improvement"}, {"measurement": "hepatic lipid accumulation, liver enzyme activities, steatosis and fibrosis", "setting": "pre-clinical NASH models", "result": "benefits in reducing"}]}]}
